These are yes or no findings as the source states them, for the method shown. In cells and extracts the contact can be indirect. Some entries that bind do so weakly or less than the wild type.
Assays:
[1] = target: T1, outer dense fiber of sperm tails 2-like (ODF2L) (human (endogenous in EOC cell lines)) (UniProt Q9ULJ1); test: co-IP; reverse coimmunoprecipitation of endogenous proteins: immunoprecipitation against ODF2L or PKMYT1 from EOC cell lysate extracted 4 hours after G1-S release, followed by immunoblotting
T1 sequence: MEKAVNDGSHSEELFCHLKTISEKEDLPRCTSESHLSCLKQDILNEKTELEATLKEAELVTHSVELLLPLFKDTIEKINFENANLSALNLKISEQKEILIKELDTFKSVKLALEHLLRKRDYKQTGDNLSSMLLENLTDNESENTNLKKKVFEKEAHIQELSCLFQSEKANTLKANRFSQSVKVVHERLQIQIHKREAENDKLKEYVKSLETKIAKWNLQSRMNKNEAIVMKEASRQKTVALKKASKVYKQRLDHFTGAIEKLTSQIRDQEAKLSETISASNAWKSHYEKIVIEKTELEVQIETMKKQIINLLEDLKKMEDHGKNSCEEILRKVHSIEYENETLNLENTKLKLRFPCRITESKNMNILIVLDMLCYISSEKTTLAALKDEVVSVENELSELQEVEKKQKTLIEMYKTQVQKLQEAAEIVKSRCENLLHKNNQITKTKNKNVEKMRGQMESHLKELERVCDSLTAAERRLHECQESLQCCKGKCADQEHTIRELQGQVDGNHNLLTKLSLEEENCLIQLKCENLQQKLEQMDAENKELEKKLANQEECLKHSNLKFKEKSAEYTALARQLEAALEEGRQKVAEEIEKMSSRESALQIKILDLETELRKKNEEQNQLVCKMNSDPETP

Chains of the proteins cited; added tags and fusions are not shown.
UniProt P06493: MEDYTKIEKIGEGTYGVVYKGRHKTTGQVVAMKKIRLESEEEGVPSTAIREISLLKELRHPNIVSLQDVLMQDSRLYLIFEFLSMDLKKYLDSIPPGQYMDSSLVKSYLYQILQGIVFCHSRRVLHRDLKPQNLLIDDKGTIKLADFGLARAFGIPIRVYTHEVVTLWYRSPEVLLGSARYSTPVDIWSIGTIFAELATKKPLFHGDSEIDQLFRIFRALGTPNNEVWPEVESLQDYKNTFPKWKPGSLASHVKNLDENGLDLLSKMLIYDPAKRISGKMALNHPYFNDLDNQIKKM

[2] = target: CDK1 (human (endogenous in EOC cell lines)) (UniProt P06493); test: co-IP; immunoprecipitation of endogenous CDK1 from EOC cells, followed by immunoblotting; control cells and cells with ODF2L knockdown or PKMYT1 knockdown

B1: PKMYT1 (enzyme, UniProt Q99640 1-499)
chain: MLERPPALAMPMPTEGTPPPLSGTPIPVPAYFRHAEPGFSLKRPRGLSRSLPPPPPAKGSIPISRLFPPRTPGWHQLQPRRVSFRGEASETLQSPGYDPSRPESFFQQSFQRLSRLGHGSYGEVFKVRSKEDGRLYAVKRSMSPFRGPKDRARKLAEVGSHEKVGQHPCCVRLEQAWEEGGILYLQTELCGPSLQQHCEAWGASLPEAQVWGYLRDTLLALAHLHSQGLVHLDVKPANIFLGPRGRCKLGDFGLLVELGTAGAGEVQEGDPRYMAPELLQGSYGTAADVFSLGLTILEVACNMELPHGGEGWQQLRQGYLPPEFTAGLSSELRSVLVMMLEPDPKLRATAEALLALPVLRQPRAWGVLWCMAAEALSRGWALWQALLALLCWLWHGLAHPASWLQPLGPPATPPGSPPCSLLLDSSLSSNWDDDSLGPSLSPEAVLARTVGSTSTPRSRCTPRDALDLSDINSEPPRGSFPSFEPRNLLSLFEDTLDPT
[1]
  binding: binds

B2: outer dense fiber of sperm tails 2-like (ODF2L) (protein, UniProt Q9ULJ1 1-636)
chain: T1 sequence
[2]
  binding: binds

Source: article PMC9843051
